Values of other authors, collected in US20070270393A1, “Methods and compositions for modulation of sleep cycle” (priority 2006, published 2007).
For at least one compound, name, drawing or mass did not settle the structure.

Test system: nocturnal level of cortisol in healthy and aged subjects
Conditions: metyrapone first to unload glucocorticoid receptors, then fludrocortisone; Otte 2003; cited from earlier work

C[C@]12CCC(=O)C=C1CC[C@H]1[C@@H]3CC[C@](O)(C(=O)CO)[C@@]3(C)C[C@H](O)[C@@]12F [fludrocortisone]
nocturnal level of cortisol: decreased
